Assay results as given in PubChem BioAssay AID540256 (National Center for Advancing Translational Sciences (NCATS), 2011).
Screen size: about 300,000 compounds; about 3,700 (1.2%) were called active. This list was built around the results that the source calls inconclusive (neither active nor inactive); the mix of calls is not that of the screen. Calls come from the whole dose curve; tested in HEK293 cells. A potency beside an inconclusive call is a rough fit, not a confirmed value.

Assay: qHTS for Inhibitors of binding or entry into cells for Lassa Virus; note: nearly all actives have a fitted effect of over 50% in size
Conditions: Lassa virus pseudotype entry inhibition, cell reporter; activity change, negative = inhibition: at 37.9 µM (top of the series) unless noted
% is set by controls: 0 for no effect and ±100 for the full control effect; potency is the fitted concentration of half-maximal effect.

| Structure (SMILES) | Potency | activity change, negative = inhibition |
| --- | --- | --- |
| COc1ccc(-c2cc(-c3nnc(COC(=O)c4ccc(O)cc4)o3)c3ccccc3n2)cc1OC | inconclusive: 28.2 µM [inhibitor, single point] |  |
| COc1ccc(NC(=O)CN(C)C(=O)C(C)Oc2ccc(Br)cc2)cc1 (stereo not given) | inconclusive: 22.4 µM [inhibitor, single point] |  |
| CC(C)NC(=O)C(=O)NCCC1CCCCN1S(=O)(=O)c1cccs1 (stereo not given) |  | inactive: 13.7% |
| COc1cccc(CN(C)C(=O)CNC(=O)c2sc3ccccc3c2Cl)c1OC | inconclusive: 35.5 µM [inhibitor, partial curve, poor fit] |  |
| CCCOc1cccc(C(=O)Nc2cc(-c3nc4ccccc4[nH]3)ccc2C)c1 | inconclusive: 15.8 µM [inhibitor, single point] |  |
| N#CC1=C(N)S[C@H](C(=O)C23CC4CC(CC(C4)C2)C3)[C@H]1c1ccncc1 | inconclusive: 15.8 µM [inhibitor, single point] |  |
| c1ccc(Cn2cnc3ccccc32)cc1 | inconclusive: 2.31 µM [activator, full curve, poor fit] |  |
| Cc1cccc(C(=O)O/N=C(\N)Cc2ccc([N+](=O)[O-])cc2)c1 | inconclusive: 12.6 µM [inhibitor, partial curve, poor fit] |  |
| O=C(Oc1cc(=O)oc2c1c(=O)n1c3c(cccc23)CC1)c1ccc(F)cc1 |  | inactive: -28.3% |
| COC(=O)c1ccc(C(C(=O)NC2CCCCC2)N(Cc2ccc(F)cc2)C(=O)Cc2cccs2)cc1 (stereo not given) | inconclusive: 10 µM [inhibitor, partial curve, poor fit] |  |
| COc1ccc(CNCCc2ccc(Cl)cc2)cc1OCc1ccccc1 | inconclusive: 35.5 µM [inhibitor, single point] |  |
| Cc1cc(C(=O)N2CCN(c3ccccc3)CC2)no1 |  | inactive: -4.6% |
| COc1ccc(S(=O)(=O)Nc2cc(Cl)ccc2OC)cc1 | inconclusive: 6.31 µM [inhibitor, partial curve] |  |
| Cc1cc(/C=N/NC(=O)c2nn(C)cc2Cl)c(C)n1-c1cccc(Br)c1 |  | inactive: 1.29% |
| O=[N+]([O-])c1cccc(/C(=N/N=C/c2ccccc2Br)C23CN4CN(CN(C4)C2)C3)c1 | inconclusive: 25.9 µM [activator, partial curve, poor fit] |  |
| O=C(CNc1ccccc1F)Nc1cccc(S(=O)(=O)N2CCCCC2)c1 |  | inactive: -28.5% |
| O=C(NC(=S)N1CCN(Cc2ccc3c(c2)OCO3)CC1)c1cccc(Br)c1 |  | inactive: -0.0259% |
| CCOc1ccc(S(=O)(=O)NCc2cccnc2)cc1C(C)C |  | inactive: -0.006% |
| CC1CCc2onc(C(=O)N3CCN(c4ccc(Cl)cc4)CC3)c2C1 (stereo not given) |  | inactive: -26.3% [at 46.1 µM] |
| Cc1ccc(S(=O)(=O)NC(=O)Nc2c(C)cccc2C)cc1 |  | inactive: -12.8% |
| Cc1ccc(Cn2ccn(Cc3ccc(C)cc3)c(=O)c2=O)cc1 |  | inactive: -19.2% [at 46.1 µM] |
| CCCC1=Nc2cc(C(=O)NCCCN(CC)CC)ccc2Sc2ccccc21 | inconclusive: 35.5 µM [inhibitor, single point] |  |
| CC(C)(C)OC(=O)N1CCC(c2nnc(SCc3ccccc3Cl)o2)CC1 | inconclusive: 35.5 µM [inhibitor, single point] |  |

| Structure (SMILES) | Potency | activity change, negative = inhibition |
| --- | --- | --- |
| COc1ccc(CNC(=S)NCc2ccc(F)cc2)cc1OC |  | inactive: -13.7% [at 46.1 µM] |
| CCCCn1c2c(c(=O)n(C)c1=O)C(c1ccc(OC)cc1)N1CCCCCC1=N2 (stereo not given) | inconclusive: 13 µM [inhibitor, partial curve] |  |
| Cc1cccc(C)c1N=Cc1c(O)n(-c2nccs2)c(=O)c2ccccc12 | inconclusive: 7.94 µM [inhibitor, partial curve, poor fit] |  |
| Cc1cc(C)n(-c2nnc(NC(C)(C)C)nn2)n1 | inconclusive: 0.447 µM [activator, full curve, poor fit] |  |
| Cc1nn(Cc2ccccc2)c(C)c1C(=O)NCc1ccccc1F | inconclusive: 14.1 µM [inhibitor, single point] |  |
| COc1ccc(C(=O)Nc2nncs2)cc1S(=O)(=O)N1CCOCC1 | inconclusive: 1.58 µM [activator, partial curve, poor fit] |  |
| O=C(NCC(c1ccco1)N1CCc2ccccc2C1)c1ccccc1 (stereo not given) | inconclusive: 5.62 µM [inhibitor, single point] |  |
| CCc1c(C)sc2c1CCN(C(=O)Nc1ccccc1Cl)C2c1ccc(OC)cc1 (stereo not given) |  | inactive: -26.7% [at 46.1 µM] |
| COc1ccccc1NS(=O)(=O)c1cc(NC(=O)c2ccccc2C)ccc1N1CCOCC1 | inconclusive: 22.4 µM [inhibitor, partial curve, poor fit] |  |
| Cc1ccc(C2(C(F)(F)F)N=C3Sc4cc(C)cc(C)c4N3C(=O)N2)cc1 (stereo not given) | inconclusive: 7.3 µM [activator, partial curve] |  |
| CCOc1cc(-c2cc(-c3ccc(OC)cc3)nc(N)c2C#N)ccc1O | inconclusive: 29.1 µM [inhibitor, single point] |  |
| COc1ccc(C(CNC(=O)c2oc3ccccc3c2C)N2CCCCC2)cc1 (stereo not given) |  | inactive: -27.8% [at 46.1 µM] |
| CCc1ccc(-n2c3nc(=O)[nH]c(=O)c-3cc3c(C)nn(-c4ccccc4)c32)cc1 | inconclusive: 3.98 µM [inhibitor, single point] |  |
| Cc1ccc(O)c(NC(=O)c2ccco2)c1 | inconclusive: 1.16 µM [activator, single point] |  |
| O=c1c(C/C=C/c2ccccc2)c(O)ccn1CCc1c[nH]c2ccccc12 | inconclusive: 35.5 µM [inhibitor, partial curve, poor fit] |  |
| CCOc1ccc2cc(C#N)c(SCC(=O)N3CCC(C)CC3)nc2c1 | inconclusive: 8.2 µM [inhibitor, partial curve] |  |
| Cc1n[nH]c(C)c1CCCOc1ccccc1 |  | inactive: 13.5% |
| COc1ccc(S(=O)(=O)N(CC(=O)NC2CCCCC2)c2ccc(F)cc2)cc1 |  | inactive: -27.5% |
| CCCCCOc1ccc(NC(=O)C(=O)NCCCn2ccnc2)cc1 |  | inactive: 11.1% |
| COc1ccc(CNC(=O)CN(c2ccc(C(C)=O)cc2)S(=O)(=O)c2ccc(C)cc2)cc1OC |  | inactive: -25.7% |
| CCCCN(C(=O)CC(c1ccccc1)c1ccccc1)c1c(N)n(CCC)c(=O)[nH]c1=O |  | inconclusive: 4.45% [activator] |
| COCCn1c(=O)[nH]c(=O)c2c(C(F)(F)F)cc(-c3cccs3)nc21 | inconclusive: 2.24 µM [inhibitor, partial curve, poor fit] |  |

Exported as labelled records: 2 of the compounds above
Cc1nn(Cc2ccccc2)c(C)c1C(=O)NCc1ccccc1F
  Potency: inconclusive: 14.1 µM [inhibitor, single point]
COc1ccc(C(=O)Nc2nncs2)cc1S(=O)(=O)N1CCOCC1
  Potency: inconclusive: 1.58 µM [activator, partial curve, poor fit]
